Assay results: patent US20120117670A1
Residue numbers refer to the chain shown, from its start. No constants are given. Whether binding was seen depends on the method and setting. Some results given as binding are weak or reduced against the parent protein; the word gives no strength. For some of these results: Sequences can lack the tags named with a protein.

T1: NHis-hAXL129-220 (human AXL single IG domain) (human) (UniProt P30530)
T1 sequence: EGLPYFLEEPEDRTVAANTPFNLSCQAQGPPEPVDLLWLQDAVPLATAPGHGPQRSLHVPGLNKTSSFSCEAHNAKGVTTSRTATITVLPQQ

B1: h#11D5-T4 (antibody, human IgG1, kappa, V domains shown)
VH: QVQLQQWGAGLLKPSETLSLTCTVSGYSITSNYWGWIRQPPGKGLEWIGHITNSGNTTYNPSLKSRVTISRDTSKNQFSLKLSSVTAADTAVYYCAKGAFDYWGQGTLVTVSS
VL: DIQMTQSPSSLSASVGDRVTITCRASQDIGNYLSWYQQKPGKAPKRLIYGAIKLAVGVPSRFSGSGSGTEFTLTISSLQPEDFATYYCLQYIQFPLTFGGGTKVEIKR
B2: h#11B7-T7 (antibody, human IgG1, kappa, V domains shown)
VH: QVQLQESGPGLVKPSETLSLTCTVSGYSITSNYWGWIRQPPGKGLEWIGYITYSGSTSYNPSLKSRVSISRDTSKNQFSLKLSSVTAADTAVYYCAITTFYYWGQGTLVTVSS
VL: DIQMTQSPSSLSASVGDRVTITCRASQDIGNYLRWYQQKPGKAPKLMISGATNLAAGVPSRFSGSGSGSDYTLTISSLQPEDFATYYCLQSKESPWTFGQGTKVEIKR
B3: h#11B7-T9 (antibody, human IgG1, kappa, V domains shown)
VH: B2 VH
VL: B2 VL with Y36F, Y71F
B4: h#11B7-T24 (antibody, human IgG1, kappa, V domains shown)
VH: B2 VH with S68T
VL: B2 VL with M47L
B5: h#11B7-T10 (antibody, human IgG1, kappa, V domains shown)
VH: B2 VH
VL: B2 VL with M47L
B6: h#11B7-T8 (antibody, human IgG1, kappa, V domains shown)
VH: B2 VH
VL: B2 VL with Y36F, M47L
B7: h#11B7-T21 (antibody, human IgG1, kappa, V domains shown)
VH: B2 VH with S68T
VL: B2 VL
B8: h#11B7-T11 (antibody, human IgG1, kappa, V domains shown)
VH: B2 VH
VL: B2 VL with Y36F, M47L, Y71F
B9: h#11B7-T16 (antibody, human IgG1, kappa, V domains shown)
VH: B2 VH with I48M, V67I, S68T
VL: B2 VL with Y36F, Y71F
B10: h#11B7-T20 (antibody, human IgG1, kappa, V domains shown)
VH: B2 VH with I48M, V67I, S68T
VL: B2 VL with M47L, Y71F
B11: h#11B7-T12 (antibody, human IgG1, kappa, V domains shown)
VH: B2 VH
VL: B2 VL with Y71F
B12: h#11B7-T2 (antibody, human IgG1, kappa, V domains shown)
VH: B2 VH with V2I, E16Q, T23A, I48M, V67I, R71V
VL: B2 VL with Y36F, S65T, S69T, L73F, Q100G
B13: h#11B7-T26 (antibody, human IgG1, kappa, V domains shown)
VH: B2 VH with S68T
VL: B2 VL with Y71F
B14: h#11B7-T3 (antibody, human IgG1, kappa, V domains shown)
VH: B2 VH with E16Q, T23A, Q39K, K43D, I48M, V67I, S70T
VL: B2 VL with Y36F, G66R, Q100G
B15: h#11B7-T13 (antibody, human IgG1, kappa, V domains shown)
VH: B2 VH
VL: B2 VL with M47L, Y71F
B16: h#11B7-T1 (antibody, human IgG1, kappa, V domains shown)
VH: B2 VH with V2I, E16Q, T23A, S68T, R71V
VL: B2 VL with M47L, S65T, S69T, Y71F, L73F, Q100G
B17: h#11B7-T23 (antibody, human IgG1, kappa, V domains shown)
VH: B2 VH with S68T
VL: B2 VL with Y36F, Y71F
B18: h#11B7-T17 (antibody, human IgG1, kappa, V domains shown)
VH: B2 VH with I48M, V67I, S68T
VL: B2 VL with M47L
B19: h#11B7-T19 (antibody, human IgG1, kappa, V domains shown)
VH: B2 VH with I48M, V67I, S68T
VL: B2 VL with Y71F
B20: h#11B7-T14 (antibody, human IgG1, kappa, V domains shown)
VH: B2 VH with I48M, V67I, S68T
VL: B2 VL
B21: rat anti-human AXL monoclonal antibody #11B7 (antibody, rat IgG1, V domains shown)
VH: EVQLQESGPGLVKPSQSLSLTCSVTGYSITSNYWGWIRKFPGDKMEWMGYITYSGSTSYNPSLKSRISITRDTSKNQFFLQLNSVTSEDTATYYCAITTFYYWGQGVMVTVSS
VL: DIQMTQAPSSLPASLGDRVTITCRASQDIGNYLRWFQQKPGKSPRLMISGATNLAAGVPSRFSGSRSGSDYSLTISSLESEDMADYYCLQSKESPWTFGGGTKLELKR
B22: chimeric anti-AXL antibody ch11D5-IgG1 (antibody, V domains shown)
VH: EVQLQESGPGLVKPSQSLSLTCSVTGYSITSNYWGWIRKFPGNKMEWIGHITNSGNTTYNPSLKSRISISRDTSRNQFFLQLNSVTTEDTATYYCAKGAFDYWGQGVMVTVSS
VL: DIQMTQSPSSMSTSLGDRVTITCRASQDIGNYLSWFQQKVGKSPRRMIYGAIKLAVGVPSRFSGSRSGSDYSLTISSLESEDMAIYYCLQYIQFPLTFGSGTKLELKR
B23: chimeric anti-AXL antibody ch11B7-IgG1 (antibody, V domains shown)
VH: B21 VH
VL: B21 VL
B24: h#11D5-T1 (antibody, human IgG1, kappa, V domains shown)
VH: B1 VH with Q6E, W7S, A9P, L12V, E16Q, K43M, R71V, K75E, A87P
VL: B1 VL with I2V, R46L, E70D, G100Q, V104L
B25: h#11D5-T2 (antibody, human IgG1, kappa, V domains shown)
VH: EVQLQESGPGLVKPSQTLSLTCTVSGYSITSNYWGWIRQPPGMGLEWIGHITNSGNTTYNPSLKSRISISVDTSENQFSLKLSSVTPADTAVYYCAKGAFDYWGQGTLVTVSS
VL: B1 VL with Y36F, K45R, R46L, L47M, E70D, F71Y, G100Q, V104L
B26: h#11D5-T3 (antibody, human IgG1, kappa, V domains shown)
VH: B25 VH with Q39K, P40F, M43N, G44K, L45M, V71R, E75K
VL: B22 VL with M11L, T13A, L15V, S72T, E79Q, S80P, M83F, L106I

Target: Human AXL-Fc (R&D Systems, #154-AL) (human) (UniProt P30530)
Experiment: ELISA, human AXL-Fc coated plate, antibody 1 µg/ml to 0.00256 ng/ml

| binding | Binder |
| --- | --- |
| binds | B1 |
| binds | B2 |
| binds | B3 |
| binds | B4 |
| binds | B5 |
| binds | B6 |
| binds | B7 |
| binds | B8 |
| binds | B9 |
| binds | B10 |
| binds | B11 |
| binds | B12 |
| binds | B13 |
| binds | B14 |
| binds | B15 |
| binds | B16 |
| binds | B17 |
| binds | B18 |
| binds | B19 |
| binds | B20 |

Target: T1, NHis-hAXL129-220 (human AXL single IG domain) (human)
Experiment: ELISA on plate-adsorbed human AXL IG-domain fragment (1 ug/ml), antibody at 0.04 ug/ml, fluorescent substrate (Example 16)

| binding | Binder |
| --- | --- |
| binds | B21 |

Target: Human AXL-Fc (R&D Systems, #154-AL) (human) (UniProt P30530)
Experiment: ELISA, human AXL-Fc coated plate; reference antibody

| binding | Binder |
| --- | --- |
| binds | B22 |
| binds | B23 |

Target: Human AXL-Fc (R&D Systems, #154-AL) (human) (UniProt P30530)
Experiment: ELISA on plate-adsorbed human AXL-Fc (1 ug/ml), 5-fold antibody dilution series, AP-conjugated goat anti-human IgG, fluorescent substrate (Example 14)

| binding | Binder |
| --- | --- |
| binds | B22 |
| binds | B24 |
| binds | B1 |
| binds | B25 |
| binds | B26 |

Target: Human AXL-Fc (R&D Systems, #154-AL) (human) (UniProt P30530)
Experiment: ELISA on plate-adsorbed human AXL-Fc (1 ug/ml), 5-fold antibody dilution series, AP-conjugated goat anti-human IgG, fluorescent substrate (Example 13)

| binding | Binder |
| --- | --- |
| binds | B23 |
| binds | B2 |
| binds | B3 |
| binds | B4 |
| binds | B5 |
| binds | B6 |
| binds | B7 |
| binds | B8 |
| binds | B9 |
| binds | B10 |
| binds | B11 |
| binds | B12 |
| binds | B13 |
| binds | B14 |
| binds | B15 |
| binds | B16 |
| binds | B17 |
| binds | B18 |
| binds | B19 |
| binds | B20 |

Target: T1, NHis-hAXL129-220 (human AXL single IG domain) (human)
Experiment: ELISA, plate-adsorbed AXL IG domain construct (1 µg/ml), antibody 0.04 µg/ml

| binding | Binder |
| --- | --- |
| binds | B21 |
